# From doi:10.1101/767202
# Amino acid sequences for entries named in this document (tags omitted).
# UniProt P51114: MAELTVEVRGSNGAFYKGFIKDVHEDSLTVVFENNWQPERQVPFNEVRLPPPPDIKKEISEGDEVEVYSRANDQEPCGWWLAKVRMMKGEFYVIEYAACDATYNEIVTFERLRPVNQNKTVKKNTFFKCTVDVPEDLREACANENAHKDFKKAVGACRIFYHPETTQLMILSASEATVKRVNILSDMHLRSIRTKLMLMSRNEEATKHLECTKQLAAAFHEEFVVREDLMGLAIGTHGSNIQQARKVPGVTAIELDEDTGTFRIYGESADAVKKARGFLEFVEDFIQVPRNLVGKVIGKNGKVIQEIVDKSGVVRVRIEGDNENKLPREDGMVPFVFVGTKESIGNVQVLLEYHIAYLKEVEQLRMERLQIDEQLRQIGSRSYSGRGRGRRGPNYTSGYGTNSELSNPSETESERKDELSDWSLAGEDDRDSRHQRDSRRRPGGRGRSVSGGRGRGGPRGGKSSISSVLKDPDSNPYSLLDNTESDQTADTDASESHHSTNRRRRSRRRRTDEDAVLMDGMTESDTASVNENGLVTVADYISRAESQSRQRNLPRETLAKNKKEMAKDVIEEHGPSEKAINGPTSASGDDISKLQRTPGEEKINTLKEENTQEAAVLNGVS
# Results are given in words; binding and its absence hold for the method and conditions named. Binding seen in cells or lysates may run through a third protein. Some results given as binding are weak or reduced against the parent protein; the word gives no strength. For part of these data: Sequences can lack the tags named with a protein.
# T1: 3xGFP-Nup85 (UniProt Q9BW27)
# T1 sequence: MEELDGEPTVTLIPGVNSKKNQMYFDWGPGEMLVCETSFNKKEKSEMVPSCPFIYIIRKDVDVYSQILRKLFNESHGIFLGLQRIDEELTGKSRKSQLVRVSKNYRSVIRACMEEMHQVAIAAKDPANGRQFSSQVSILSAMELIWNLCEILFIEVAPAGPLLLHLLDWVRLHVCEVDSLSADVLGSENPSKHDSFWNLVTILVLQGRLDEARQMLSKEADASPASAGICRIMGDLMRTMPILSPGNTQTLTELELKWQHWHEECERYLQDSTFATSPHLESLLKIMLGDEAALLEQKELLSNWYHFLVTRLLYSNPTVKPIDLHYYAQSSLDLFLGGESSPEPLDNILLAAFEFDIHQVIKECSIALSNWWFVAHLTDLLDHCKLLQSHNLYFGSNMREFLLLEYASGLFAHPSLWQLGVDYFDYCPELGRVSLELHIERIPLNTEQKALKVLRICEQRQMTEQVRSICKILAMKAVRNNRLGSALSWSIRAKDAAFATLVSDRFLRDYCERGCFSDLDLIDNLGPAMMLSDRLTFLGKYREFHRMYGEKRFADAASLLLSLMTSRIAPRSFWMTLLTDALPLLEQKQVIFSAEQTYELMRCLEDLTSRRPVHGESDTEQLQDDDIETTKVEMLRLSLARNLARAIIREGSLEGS
# Experiments:
# [1] = molecular target: T1, 3xGFP-Nup85; assay: co-IP
# [2] = molecular target: FXR1 (endogenous, HEK293T) (human (endogenous in HEK293T)) (UniProt P51114); assay: co-IP
binding [1],binding [2],Molecule
binds,,"FXR1 (endogenous, HeLa) (from UniProt P51114 1-621)"
,binds,"Nup85 (endogenous, HEK293T) (protein, UniProt Q9BW27 1-656) MEELDGEPTVTLIPGVNSKKNQMYFDWGPGEMLVCETSFNKKEKSEMVPSCPFIYIIRKDVDVYSQILRKLFNESHGIFLGLQRIDEELTGKSRKSQLVRVSKNYRSVIRACMEEMHQVAIAAKDPANGRQFSSQVSILSAMELIWNLCEILFIEVAPAGPLLLHLLDWVRLHVCEVDSLSADVLGSENPSKHDSFWNLVTILVLQGRLDEARQMLSKEADASPASAGICRIMGDLMRTMPILSPGNTQTLTELELKWQHWHEECERYLQDSTFATSPHLESLLKIMLGDEAALLEQKELLSNWYHFLVTRLLYSNPTVKPIDLHYYAQSSLDLFLGGESSPEPLDNILLAAFEFDIHQVIKECSIALSNWWFVAHLTDLLDHCKLLQSHNLYFGSNMREFLLLEYASGLFAHPSLWQLGVDYFDYCPELGRVSLELHIERIPLNTEQKALKVLRICEQRQMTEQVRSICKILAMKAVRNNRLGSALSWSIRAKDAAFATLVSDRFLRDYCERGCFSDLDLIDNLGPAMMLSDRLTFLGKYREFHRMYGEKRFADAASLLLSLMTSRIAPRSFWMTLLTDALPLLEQKQVIFSAEQTYELMRCLEDLTSRRPVHGESDTEQLQDDDIETTKVEMLRLSLARNLARAIIREGSLEGS"
,binds,"Nup133 (endogenous, HEK293T) (protein, UniProt Q8WUM0 1-1156) MFPAAPSPRTPGTGSRRGPLAGLGPGSTPRTASRKGLPLGSAVSSPVLFSPVGRRSSLSSRGTPTRMFPHHSITESVNYDVKTFGSSLPVKVMEALTLAEVDDQLTINIDEGGWACLVCKEKLIIWKIALSPITKLSVCKELQLPPSDFHWSADLVALSYSSPSGEAHSTQAVAVMVATREGSIRYWPSLAGEDTYTEAFVDSGGDKTYSFLTAVQGGSFILSSSGSQLIRLIPESSGKIHQHILPQGQGMLSGIGRKVSSLFGILSPSSDLTLSSVLWDRERSSFYSLTSSNISKWELDDSSEKHAYSWDINRALKENITDAIWGSESNYEAIKEGVNIRYLDLKQNCDGLVILAAAWHSADNPCLIYYSLITIEDNGCQMSDAVTVEVTQYNPPFQSEDLILCQLTVPNFSNQTAYLYNESAVYVCSTGTGKFSLPQEKIVFNAQGDSVLGAGACGGVPIIFSRNSGLVSITSRENVSILAEDLEGSLASSVAGPNSESMIFETTTKNETIAQEDKIKLLKAAFLQYCRKDLGHAQMVVDELFSSHSDLDSDSELDRAVTQISVDLMDDYPASDPRWAESVPEEAPGFSNTSLIILHQLEDKMKAHSFLMDFIHQVGLFGRLGSFPVRGTPMATRLLLCEHAEKLSAAIVLKNHHSRLSDLVNTAILIALNKREYEIPSNLTPADVFFREVSQVDTICECLLEHEEQVLRDAPMDSIEWAEVVINVNNILKDMLQAASHYRQNRNSLYRREESLEKEPEYVPWTATSGPGGIRTVIIRQHEIVLKVAYPQADSNLRNIVTEQLVALIDCFLDGYVSQLKSVDKSSNRERYDNLEMEYLQKRSDLLSPLLSLGQYLWAASLAEKYCDFDILVQMCEQTDNQSRLQRYMTQFADQNFSDFLFRWYLEKGKRGKLLSQPISQHGQLANFLQAHEHLSWLHEINSQELEKAHATLLGLANMETRYFAKKKTLLGLSKLAALASDFSEDMLQEKIEEMAEQERFLLHQETLPEQLLAEKQLNLSAMPVLTAPQLIGLYICEENRRANEYDFKKALDLLEYIDEEEDININDLKLEILCKALQRDNWSSSDGKDDPIEVSKDSIFVKILQKLLKDGIQLSEYLPEVKDLLQADQLGSLKSNPYFEFVLKANYEYYVQGQI"
